Experimental data as given in patent US20100105652A1, “PURINES AS CYSTEINE PROTEASE INHIBITORS” (Glaxo Group Limited, priority 2007, published 2010).
Some of these results come from one statement about several compounds together.

test system: Plasmodium falciparum parasite; assay: whole cell activity against the Plasmodium falciparum parasite; assay type: cell-based; settings: comparison with prior art comparators
Source text: Equation 7 describes the apparent KI for competitive compounds and was substituted into equations 5 and 6 to generate the relevant binding constants from the fitting routine. In addition, the initial and final velocities were fit to equation 3 to further define the binding mechanism and potency. A complete discussion of this kinetic treatment has been fully described (Morrison et al., Adv. Enzymol. Relat. Areas Mol. Biol., 1988, 61, 201). 2) Determination of Whole Cell Activity Against the Plasmodium falciparum Parasite Compounds can be evaluated for whole cell activity against the Plasmodium falciparum parasite according to the procedure described in Sijwali S, and Rosenthal P. J., (2004) Proceedings of the National Academy of Sciences of the United States of America (PNAS) 101(13), 4384-4389 (see in particular “Measurement of Parasite Growth rates and Inhibitor Sensitivity” on page 4385); IC50 values can be calculated as described in Singh A. and Rosenthal P. J., (2001) Antimicrobial Agents and Chemotherapy 45(3), 949-951 (see in particular page 950, first column); synchronised parasites can be prepared as described in Divo A. A. et al., (1985) Protozool. 32, 59-64.

Row | SMILES | activity in the whole cell assay, as compared with comparative Examples 24 and 25
1 | CN1CCN(c2cccc(C(=O)NN(c3nc(C#N)nc4c3ncn4C)C3CCCC3)c2)CC1.O=C(O)C(F)(F)F [Example 33, N′-(2-cyano-9-methyl-9H-purin-6-yl)-N′-cyclopentyl-3-(4-methyl-1-piperazinyl)benzohydrazide trifluoroacetate] | improved activity
2 | CN1CCN(C(=O)C2CCN(Cc3ccc(C(=O)NN(c4nc(C#N)nc5c4ncn5C)C4CCCC4)cc3)CC2)CC1.O=C(O)C(F)(F)F [Example 6, N′-(2-cyano-9-methyl-9H-purin-6-yl)-N′-cyclopentyl-4-({4-[(4-methyl-1-piperazinyl)carbonyl]-1-piperidinyl}methyl)benzohydrazide trifluoroacetate] | improved activity
3 | CN1CCN(Cc2ccc(-c3cncc(C(=O)NN(c4nc(C#N)nc5c4ncn5C)C4CCCC4)c3)cc2)CC1.O=C(O)C(F)(F)F [Example 27, N′-(2-Cyano-9-methyl-9H-purin-6-yl)-N′-cyclopentyl-5-{4-[(4-methyl-1-piperazinyl)methyl]phenyl}-3-pyridinecarbohydrazide trifluoroacetate] | improved activity
4 | CN1CCN(Cc2ccc(C(=O)NN(c3nc(C#N)nc4c3ncn4C(=O)N3CCN(C)CC3)C3CCCC3)cc2)CC1.O=C(O)C(F)(F)F [Example 34, N′-{2-cyano-9-[(4-methyl-1-piperazinyl)carbonyl]-9H-purin-6-yl}-N′-cyclopentyl-4-[(4-methyl-1-piperazinyl)methyl]benzohydrazide trifluoroacetate] | improved activity
5 | CN1CCN(Cc2ccc(C(=O)NN(c3nc(C#N)nc4c3ncn4C)C3CCCC3)cc2)CC1.O=C(O)C(F)(F)F [Example 47, N′-(2-cyano-9-methyl-9H-purin-6-yl)-N′-cyclopentyl-4-[(4-methyl-1-piperazinyl)methyl]benzohydrazide trifluoroacetate] | improved activity
6 | CC(=O)N1CCC(N(NC(=O)OC(C)(C)C)c2nc(C#N)nc3c2ncn3C)CC1 [Example 20, 1,1-dimethylethyl-2-(1-acetyl-4-piperidinyl)-2-(2-cyano-9-methyl-9H-purin-6-yl)hydrazinecarboxylate] | improved activity
7 | CN(C)CCn1cnc2c(N(NC(=O)c3cccc(-c4ccc(CN5CCN(C)CC5)cc4)n3)C3CCCCC3)nc(C#N)nc21.O=C(O)C(F)(F)F [Example 45, N′-{2-cyano-9-[2-(dimethylamino)ethyl]-9H-purin-6-yl}-N′-cyclohexyl-6-{4-[(4-methyl-1-piperazinyl)methyl]phenyl}-2-pyridinecarbohydrazide trifluoroacetate] | improved activity
8 | CN(C)CCn1cnc2c(N(NC(=O)c3ccc(CN4CCN(C)CC4)cc3)C3CCCCC3)nc(C#N)nc21.O=C(O)C(F)(F)F [Example 44, N′-{2-cyano-9-[2-(dimethylamino)ethyl]-9H-purin-6-yl}-N′-cyclohexyl-4-[(4-methyl-1-piperazinyl)methyl]benzohydrazide trifluoroacetate] | improved activity
9 | CN1CCCC(CN2CCN(Cc3ccc(C(=O)NN(CC4CCCC4)c4nc(C#N)nc5c4ncn5C)cc3)CC2)C1.O=C(O)C(F)(F)F (stereo not drawn) [Example 3, N′-(2-cyano-9-methyl-9H-purin-6-yl)-N′-(cyclopentylmethyl)-4-({4-[(1-methyl-3-piperidinyl)methyl]-1-piperazinyl}methyl)benzohydrazide trifluoroacetate] | improved activity
10 | CN(C)CCCN(C(=O)OC(C)(C)C)N(CC1CCCC1)c1nc(C#N)nc2c1ncn2CCCN(C)C.O=C(O)C(F)(F)F [Example 16, 1,1-dimethylethyl 2-{2-cyano-9-[3-(dimethylamino)propyl]-9H-purin-6-yl}-2-(cyclopentylmethyl)-1-[3-(dimethylamino)propyl]hydrazinecarboxylate trifluoroacetate] | improved activity
11 | CN1CCN(C(=O)n2cnc3c(N(NC(=O)OC(C)(C)C)C4CCCCC4)nc(C#N)nc32)CC1.O=C(O)C(F)(F)F [Example 35, 1,1-dimethylethyl 2-{2-cyano-9-[(4-methyl-1-piperazinyl)carbonyl]-9H-purin-6-yl}-2-cyclohexylhydrazinecarboxylate trifluoroacetate] | improved activity
12 | CN(C)CCn1cnc2c(N(NC(=O)c3cccc(N4CCN(C)CC4)c3)C3CCCC3)nc(C#N)nc21.O=C(O)C(F)(F)F [Example 41, N′-{2-cyano-9-[2-(dimethylamino)ethyl]-9H-purin-6-yl}-N′-cyclopentyl-3-(4-methyl-1-piperazinyl)benzohydrazide bis(trifluoroacetate)] | improved activity
13 | CN(C)CCCn1cnc2c(N(NC(=O)OC(C)(C)C)C3CCOCC3)nc(C#N)nc21.O=C(O)C(F)(F)F [Example 19, 1,1-dimethylethyl 2-{2-cyano-9-[3-(dimethylamino)propyl]-9H-purin-6-yl}-2-(tetrahydro-2H-pyran-4-yl)hydrazinecarboxylate trifluoroacetate] | improved activity
14 | CN1CCN(c2ccc(C(=O)NN(c3nc(C#N)nc4c3ncn4C)C3CCCC3)cc2)CC1.O=C(O)C(F)(F)F [Example 32, N′-(2-cyano-9-methyl-9H-purin-6-yl)-N′-cyclopentyl-4-(4-methyl-1-piperazinyl)benzohydrazide trifluoroacetate] | improved activity
15 | CN1CCN(C2CCN(Cc3ccc(C(=O)NN(c4nc(C#N)nc5c4ncn5C)C4CCCCC4)cc3)CC2)CC1.O=C(O)C(F)(F)F [Example 8] | improved activity
16 | CN(C)CCCn1cnc2c(N(NC(=O)c3ccc(CN4CCN(C)CC4)cc3)C3CCCCC3)nc(C#N)nc21.O=C(O)C(F)(F)F [Example 31, N′-{2-cyano-9-[3-(dimethylamino)propyl]-9H-purin-6-yl}-N′-cyclo hexyl-4-[(4-methyl-1-piperazinyl)methyl]benzohydrazide trifluoroacetate] | improved activity
17 | Cn1cnc2c(N(NC(=O)c3ccc(CN4CC(N5CCCC5)C4)cc3)C3CCCC3)nc(C#N)nc21.O=C(O)C(F)(F)F [Example 7] | improved activity
18 | CN1CCN(C(=O)n2cnc3c(N(NC(=O)OC(C)(C)C)C4CCCC4)nc(C#N)nc32)CC1 [Example 29, 1,1-dimethylethyl 2-{2-cyano-9-[(4-methyl-1-piperazinyl)carbonyl]-9H-purin-6-yl}-2-cyclopentylhydrazinecarboxylate] | improved activity
19 | CN(C)CCn1cnc2c(N(NC(=O)c3cccc(-c4ccc(CN5CCN(C)CC5)cc4)n3)C3CCCC3)nc(C#N)nc21.O=C(O)C(F)(F)F [Example 42, N′-{2-cyano-9-[2-(dimethylamino)ethyl]-9H-purin-6-yl}-N′-cyclopentyl-6-{4-[(4-methyl-1-piperazinyl)methyl]phenyl}-2-pyridinecarbohydrazide trifluoroacetate] | improved activity
20 | CN(C)CCCn1cnc2c(N(CC3CCCC3)NC(=O)OC(C)(C)C)nc(C#N)nc21.O=C(O)C(F)(F)F [Example 12, 1,1-dimethylethyl 2-{2-cyano-9-[3-(dimethylamino)propyl]-9H-purin-6-yl}-2-(cyclopentylmethyl)hydrazinecarboxylate trifluoroacetate] | improved activity
21 | CC(C)CN(NC(=O)c1ccc(CN2CCN(C)CC2)cc1)c1nc(C#N)nc2c1ncn2C [Example 22, N′-(2-cyano-9-methyl-9H-purin-6-yl)-4-[(4-methyl-1-piperazinyl)methyl]-N′-(2-methylpropyl)benzohydrazide] | improved activity
22 | CN(C)CCCn1cnc2c(N(NC(=O)c3cccc(N4CCN(C)CC4)c3)C3CCCC3)nc(C#N)nc21.O=C(O)C(F)(F)F [Example 37] | improved activity
23 | CN(C)C1CCN(C(=O)n2cnc3c(N(NC(=O)OC(C)(C)C)C4CCCC4)nc(C#N)nc32)CC1.O=C(O)C(F)(F)F [Example 48, 1,1-dimethylethyl 2-(2-cyano-9-{[4-(dimethylamino)-1-piperidinyl]carbonyl}-9H-purin-6-yl)-2-cyclopentylhydrazinecarboxylate trifluoroacetate] | improved activity
24 | CN1CCC(CN2CCN(Cc3ccc(C(=O)NN(c4nc(C#N)nc5c4ncn5C)C4CCCC4)cc3)CC2)CC1.O=C(O)C(F)(F)F [Example 5, N′-(2-cyano-9-methyl-9H-purin-6-yl)-N′-cyclopentyl-4-({4-[(1-methyl-4-piperidinyl)methyl]-1-piperazinyl}methyl)benzohydrazide trifluoroacetate] | improved activity
